Values of other authors, collected in patent publication US8480909B2, “Method for treatment of canals” (priority 2009, dated 2013).
For at least one compound, name, drawing or mass did not settle the structure.

Conditions: cited from earlier work

[Ca+2].[O-]Cl.[O-]Cl [calcium hypochlorite]
carcinogenicity: not carcinogenic
